{
  "source": "PubChem BioAssay AID1347426",
  "about": "(Functional Genomics Laboratory (NCATS/FGL), 2020)",
  "note": "About 1,400 (4.5%) of roughly 31,000 sequences were called active.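 Rule for the calls: active = median seed-adjusted z-score above 1 or below -1; inactive = the rest.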 This is one part of the list.",
  "data": [
    {"assay": "Novel Modifiers of Survival Motor Neuron (SMN) Protein: Gene Identification via Genome-wide siRNA Screen;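 note: luminescence tracks full-length SMN protein made from the SMN2 reporter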", "conditions": "HEK293T SMN2-luciferase reporter, siRNA knockdown, 72 h; actives lie on both sides", "how_it_was_run": "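Luciferase signal, proportional to full-length SMN made from an SMN2 cDNA reporter in stable HEK293T cells, was read 72 h after siRNA reverse transfection. Values were expressed as MAD scores after non-targeting-control normalization and log10 conversion; seed analysis flagged off-targets.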", "values": [
      {"sequence": "GGGAACUUCUUGUUAUGAATT against ARNTL2", "median seed-adjusted z-score": "inactive: 0.102"},
      {"sequence": "CCCUGAAGGUCCUAGUGGATT against CDKN2D", "median seed-adjusted z-score": "inactive: -0.455"},
      {"sequence": "UCCACAAGGUGAAAACAGATT against PPYR1", "median seed-adjusted z-score": "inactive: 0.589"},
      {"sequence": "CACCUAUUGAGUAUCCAAATT against ETFDH", "median seed-adjusted z-score": "inactive: 0.154"},
      {"sequence": "AGAGGAUCCUGAACUCCAATT against MYO19", "median seed-adjusted z-score": "inactive: 0.0987"},
      {"sequence": "GAACAUCAGUUCUACGAGATT against IP6K2", "median seed-adjusted z-score": "inactive: -0.193"},
      {"sequence": "UCGAGGAAAUGAUCCGGGATT against GALE", "median seed-adjusted z-score": "inactive: -0.153"},
      {"sequence": "GAUAAAGUUGGAACAGAUATT against EEF1B2", "median seed-adjusted z-score": "inactive: 0.388"},
      {"sequence": "GAACAAAAUAUUAUCCGAATT against PTF1A", "median seed-adjusted z-score": "inactive: 0.482"},
      {"sequence": "GAACGGCUAUGUGCGUUUATT against BMPR2", "median seed-adjusted z-score": "inactive: 0"},
      {"sequence": "AGGUUUACACGGUCGUGGATT against AP2S1", "median seed-adjusted z-score": "inactive: 0.146"},
      {"sequence": "UGCUCUACUUCUUAAGUGATT against STARD8", "median seed-adjusted z-score": "inactive: -0.135"},
      {"sequence": "CACUCAUUCAGUUCGAAGATT against ME2", "median seed-adjusted z-score": "inactive: -0.0557"},
      {"sequence": "CGAACUACUCUUAAGCUUUTT against TRPC4", "median seed-adjusted z-score": "inactive: -0.272"},
      {"sequence": "GGAGAGCACCUAUCAGCAATT against RPA2", "median seed-adjusted z-score": "inactive: -0.0957"},
      {"sequence": "GCAGAGGUACUAUUGAAAUTT against CRYZ", "median seed-adjusted z-score": "inactive: -0.809"},
      {"sequence": "GGCCUUUCAUUAUAGAUCATT against ZNF624", "median seed-adjusted z-score": "inactive: 0.378"},
      {"sequence": "GAAUGUGACUGACACGGAUTT against LOC647743", "median seed-adjusted z-score": "inactive: -0.203"},
      {"sequence": "CUACUGUCCUGAUGUAUCATT against MYF5", "median seed-adjusted z-score": "inactive: -0.786"},
      {"sequence": "GGAUUUCGAAGGAGAUUCATT against INPP5E", "median seed-adjusted z-score": "inactive: -0.0321"},
      {"sequence": "AAGACGCAAUGGGAAACAGTT against FAHD2B", "median seed-adjusted z-score": "inactive: 0.154"},
      {"sequence": "GAAUGUUCUGUGCCGGAUATT against TMPRSS11A", "median seed-adjusted z-score": "inactive: 0"},
      {"sequence": "GCUUGGGUGAAGAACCACATT against SLC22A13", "median seed-adjusted z-score": "inactive: 0.904"},
      {"sequence": "CGGGUACUCUAUUUCCGUUTT against PCDHB4", "median seed-adjusted z-score": "inactive: 0.00998"},
      {"sequence": "UGUCAGGCCUGAUUAUCUATT against SOD2", "median seed-adjusted z-score": "inactive: -0.558"},
      {"sequence": "GGAUGUAGUAAUUACUAUATT against CPVL", "median seed-adjusted z-score": "inactive: 0.334"},
      {"sequence": "ACACGGCCGUCAUCCUUGUTT against NPBWR2", "median seed-adjusted z-score": "inactive: 0.438"},
      {"sequence": "GGAUAGUGGUUCUAUGACUTT against KRT86", "median seed-adjusted z-score": "inactive: -0.689"},
      {"sequence": "GCGCGGAAAACGUGACUUUTT against RGS14", "median seed-adjusted z-score": "inactive: 0.655"},
      {"sequence": "GGAUUGUGAGGACUAUUUUTT against ANXA13", "median seed-adjusted z-score": "inactive: -0.467"},
      {"sequence": "GAAGUUCGGUCGAACCACATT against CST5", "median seed-adjusted z-score": "inactive: 0.466"},
      {"sequence": "GGAGGCUCGUUUUCCCGUATT against EGR4", "median seed-adjusted z-score": "inactive: 0"},
      {"sequence": "CAUAUUAGAUGAACUGGUATT against RAD18", "median seed-adjusted z-score": "inactive: 0.562"},
      {"sequence": "GGACCGACCUAGAUUUGAATT against PRKAR1A", "median seed-adjusted z-score": "inactive: 0.428"},
      {"sequence": "GCCUGAAAGUGCAAGGUAUTT against SVOP", "median seed-adjusted z-score": "inactive: 0"},
      {"sequence": "GCUUUGACCUUCUUAGCAATT against SMARCAL1", "median seed-adjusted z-score": "inactive: -0.145"},
      {"sequence": "GACAUAUCUGUGAUGCUAATT against IL7", "median seed-adjusted z-score": "inactive: 0.253"},
      {"sequence": "GCAUUUACAAUGAGGUAAATT against SNUPN", "median seed-adjusted z-score": "inactive: -0.199"},
      {"sequence": "GAAUAUCGGUUGGAUUAUATT against ITGAV", "median seed-adjusted z-score": "active: 1.17"},
      {"sequence": "CACUUGUGAAGUAACAGAATT against CD47", "median seed-adjusted z-score": "inactive: 0.0241"},
      {"sequence": "GCACCGAGUCGGAGAUGAATT against MGAT5B", "median seed-adjusted z-score": "inactive: 0"},
      {"sequence": "GGAAAGCACAUUCCGUUUATT against ORC4L", "median seed-adjusted z-score": "inactive: -0.286"},
      {"sequence": "GUAUGUUAAGUGCUAUUCATT against UCHL5", "median seed-adjusted z-score": "inactive: -0.358"},
      {"sequence": "GGUGCAAUGAGCUACGUUATT against MCF2", "median seed-adjusted z-score": "inactive: 0.51"},
      {"sequence": "CCAUAGGCGUGAGAGUUUATT against ZNF219", "median seed-adjusted z-score": "inactive: 0.127"},
      {"sequence": "CCCAAACCCUUAACCAUGATT against TOX3", "median seed-adjusted z-score": "inactive: -0.216"},
      {"sequence": "GGAUGAUUACCUAUUCAUUTT against LRRC55", "median seed-adjusted z-score": "inactive: 0.314"},
      {"sequence": "GGUUUUCAUAUCUUACUAATT against ZNF695", "median seed-adjusted z-score": "inactive: -0.358"},
      {"sequence": "GAACGUGAAGAAGUAAGUUTT against EIF3A", "median seed-adjusted z-score": "inactive: -0.689"},
      {"sequence": "CAAGUUCCCUUACCCAACATT against ZHX1", "median seed-adjusted z-score": "inactive: -0.566"},
      {"sequence": "GGACCAUUGGUGAUGAGAATT against CD36", "median seed-adjusted z-score": "inactive: -0.000845"},
      {"sequence": "CAUCCAGUCUGUAUACGAATT against ACLY", "median seed-adjusted z-score": "inactive: 0.478"},
      {"sequence": "GGUCUGUCAUGCUAAUCCATT against COPB1", "median seed-adjusted z-score": "inactive: -0.839"},
      {"sequence": "GGAGACUAGUGGUGGGAUATT against CCL16", "median seed-adjusted z-score": "inactive: -0.308"},
      {"sequence": "GGACCACUAUUUACAGCAATT against FUCA2", "median seed-adjusted z-score": "inactive: 0.562"},
      {"sequence": "GGUUGUGACUGGAUCUAAUTT against NFATC3", "median seed-adjusted z-score": "inactive: -0.517"},
      {"sequence": "GCUGUGAAAUUGUUUCGAATT against IREB2", "median seed-adjusted z-score": "inactive: 0"},
      {"sequence": "ACACCCGUGUCUCAAGAUATT against KLK13", "median seed-adjusted z-score": "inactive: 0.452"},
      {"sequence": "GGAUACGGAUGAUUGAGAATT against ARHGAP26", "median seed-adjusted z-score": "inactive: 0.34"},
      {"sequence": "GGACAAUGCCUACAUGAUATT against KRT2", "median seed-adjusted z-score": "inactive: -0.451"},
      {"sequence": "GAAGUAUGCUGAGAAAGCATT against ARSG", "median seed-adjusted z-score": "inactive: -0.133"},
      {"sequence": "AGUCUGUCCUCCUAAGAAATT against SLPI", "median seed-adjusted z-score": "inactive: 0.274"},
      {"sequence": "GGAACGGGAUUGGUUCACATT against IARS2", "median seed-adjusted z-score": "inactive: -0.404"},
      {"sequence": "GCAUUUGCCUAAUCCUCAUTT against ZNF18", "median seed-adjusted z-score": "inactive: -0.27"},
      {"sequence": "GCCCUAAAGGAGAAAGUCATT against MAT2A", "median seed-adjusted z-score": "active: -1.9"},
      {"sequence": "GCCGUUUAGGGAAAUCUUATT against P2RY14", "median seed-adjusted z-score": "inactive: -0.0536"},
      {"sequence": "CGAUUAAUCUUUCAUCGUUTT against NPHP3", "median seed-adjusted z-score": "inactive: 0.239"},
      {"sequence": "CGGUCCAUGCAGUUGUAUATT against SEC61A1", "median seed-adjusted z-score": "inactive: 0.312"},
      {"sequence": "CAACCGCGCUCUCAAGAGATT against RGS8", "median seed-adjusted z-score": "inactive: 0.739"}
    ]}
  ]
}
